# Laboratory results as given in PubChem BioAssay AID540276 (National Center for Advancing Translational Sciences (NCATS), 2011).
# In all, about 300,000 compounds went through this assay and about 5,400 (1.8%) were called active. Inconclusive results, whose numbers are uncertain, are shown with a selection of clear calls. Calls follow the shape of the full dose curve; tested in HEK293 cells. Potencies of inconclusive entries are doubtful fits and often do not repeat.
# Experiment: qHTS for inhibitors of binding or entry into cells for Marburg Virus
# Conditions: Marburg virus pseudotyped entry inhibition, cell reporter; series mostly up to 37.8 µM
# Potency is read from the fitted curve at half-maximal effect.
row,Structure (SMILES),Potency
1,O=C(CNC(=O)c1ccccc1F)NCCOc1ccccc1Cl,inactive
2,Cn1ccnc1CC(O)(c1ccccc1)c1ccccc1,inactive
3,COc1cccc(/C=N/NC(=O)c2ccc(-c3ccccc3)cc2)c1O,active: 3.16 µM
4,C/C(=N\NC(=O)C(N)=O)c1ccc(O)cc1O,inactive
5,Cc1cccc(C(=O)NCC(=O)N2CCN(c3ccccn3)CC2)c1,"inconclusive: 5.62 µM [activator, partial curve, poor fit]"
6,Cc1cccc(S(=O)(=O)N(CC(=O)Nc2ccccc2C)Cc2ccco2)c1,inactive
7,COc1cccc(C2C=C(Nc3ccccc3)C(=O)N2c2ccccc2)c1 (stereo not drawn),inactive
8,Brc1cccc(CNCc2ccncc2)c1,"inconclusive: 6.31 µM [activator, partial curve, poor fit]"
9,CSc1nc(=S)c2[nH]c(=S)[nH]c2[nH]1,"inconclusive: 35.5 µM [activator, single point]"
10,CC(=O)Nc1nc(SCCCc2ccccc2)n[nH]1,inactive
11,Cc1ccc(NC(=O)COC(=O)CCc2c(C)nc3ncnn3c2C)cc1,"inconclusive: 3.16 µM [inhibitor, single point]"
12,CC(C)CNC(=O)c1cc(S(=O)(=O)N2CCOCC2)ccc1N1CCCC1,"inconclusive: 11.2 µM [inhibitor, single point]"
13,O=C(NCCOc1ccccc1Cl)C(=O)Nc1ccccc1,"inconclusive: 1.26 µM [inhibitor, single point]"
14,O=C(C[n+]1ccccc1)c1ccc(-c2ccccc2)cc1,inactive
15,Cc1n[nH]c(C)c1N=Nc1ccc(Br)cc1,"inconclusive: 15.8 µM [activator, single point]"
16,O=C(NCCOC(=O)c1ccc(S(=O)(=O)N2CCOCC2)cc1)c1cccnc1,inactive
17,O=C(NN1C(=O)/C(=C/c2ccc(O)c(O)c2)SC1=S)c1ccccc1,"inconclusive: 35.5 µM [inhibitor, single point]"
18,CN(c1ccc(C(=O)Nc2ccccc2Sc2ccccc2)cc1)S(C)(=O)=O,"inconclusive: 35.5 µM [inhibitor, single point]"
19,C=C(C)CSc1nnc(-c2ccc(OC)cc2)n1N,inactive
20,O=[N+]([O-])c1cc(S(=O)(=O)c2ccc(N3CCCCC3)c([N+](=O)[O-])c2)ccc1N1CCCCC1,"inconclusive: 14.1 µM [inhibitor, partial curve, poor fit]"
21,COc1ccc(N2C(=O)C(CN3CCN(C)CC3)C2c2ccccc2)cc1 (stereo not drawn),"inconclusive: 29.1 µM [inhibitor, single point]"
22,O=C(Nc1ccc(F)cc1)c1cc(-c2ccncc2)nc2c(Cl)cccc12,"inconclusive: 14.1 µM [inhibitor, partial curve, poor fit]"
23,CCNc1nc(SCC(=O)Nc2ccc(Cl)c(Cl)c2)nc(N2CCOCC2)n1,"inconclusive: 11.2 µM [inhibitor, partial curve, poor fit]"
24,CC(C)c1cc(C(=O)NCc2ccccc2)no1,"inconclusive: 14.1 µM [activator, partial curve, poor fit]"

row,Structure (SMILES),Potency
1,Cc1ccc(S(=O)(=O)/N=C2/NC(=O)/C(=C/c3ccccc3)S2)cc1,"inconclusive: 6.31 µM [inhibitor, single point]"
2,N#C/C(=C(/O)CSc1nnc(Cc2cccs2)n1C1CCCCC1)c1nc2ccccc2[nH]1,"inconclusive: 35.5 µM [inhibitor, single point]"
3,COc1ccc(NC(=O)c2csnn2)cc1,"inconclusive: 6.31 µM [activator, full curve, poor fit]"
4,CCn1c(SCC(O)c2ccccc2)nnc1-c1ccccc1 (stereo not drawn),"inconclusive: 6.31 µM [activator, single point]"
5,COc1ccc(NC(=O)CN(C)C(=O)CCc2nc3cc(S(=O)(=O)N4CCOCC4)ccc3n2C)cc1,"inconclusive: 3.16 µM [inhibitor, single point]"
6,COc1ccc(CNc2ncnc3c2[nH]c2cc(OC)c(OC)cc23)cc1,"inconclusive: 3.98 µM [inhibitor, partial curve, poor fit]"
7,CC(C)Oc1ccc(C(=O)OCC(=O)N2CCCc3ccccc32)cc1,"inconclusive: 31.6 µM [activator, single point]"
8,COc1ccc(C(=O)Cc2cc(OC)c(OC)cc2[N+](=O)[O-])cc1,"inconclusive: 3.66 µM [activator, single point]"
9,CCN(CC)c1nc(C#N)nc(N(CC)CC)n1,"inconclusive: 6.31 µM [inhibitor, single point]"
10,COc1ccccc1NC(=O)COc1ccccc1C(=O)c1cnn(-c2ccccc2)c1,inactive
11,Cc1cnc(NC(=O)CSC(=S)N2CCOCC2)s1,inactive
12,CCCN(CC1CCCO1)C(=O)c1cc(COc2ccc(F)cc2F)on1 (stereo not drawn),inactive
13,COc1ccc(S(=O)(=O)Nc2ccc3ccccc3c2)cc1C,"inconclusive: 29.1 µM [inhibitor, single point]"
14,COCC(=O)N1CCC(Oc2ccc(C(=O)N3CCCCCCC3)cc2)CC1,inactive
15,C/C(=N\Nc1nc2ccccc2s1)c1cccs1,"inconclusive: 12.6 µM [inhibitor, partial curve, poor fit]"
16,O=C(Nc1ccc(S(=O)(=O)NCc2ccco2)cc1)C1CCCCC1,inactive
17,COc1ccc(CNC(=O)C2=CC(c3cccc(OC)c3)=NS(=O)(=O)N2C)cc1,"inconclusive: 11.2 µM [inhibitor, partial curve, poor fit]"
18,O=C(CSc1ncn[nH]1)NCCc1ccccc1,inactive
19,Cc1ccc(C(=O)COC(=O)CCN2C(=O)C3C4C=CC(C5CC45)C3C2=O)cc1 (stereo not drawn),inactive
20,Cc1cc(-c2n[nH]c(=S)n2CC(C)C)cs1,inactive
21,COc1ccc(NS(=O)(=O)c2cc(S(C)(=O)=O)ccc2C)cc1,inactive
22,CCCC(=O)Nc1cccc(C(=O)Nc2nccs2)c1,inactive
23,Cc1cccnc1NC(=S)NC(=O)/C=C/c1ccccc1,"inconclusive: 11.2 µM [activator, partial curve, poor fit]"
24,CCc1cc2c(nc1CC)CCN(CCC(C)=NO[C@@H]1O[C@H](COC(C)=O)[C@@H](OC(C)=O)[C@H](OC(C)=O)[C@@H]1OC(C)=O)C2,inactive

# Fetched by compound from the entries so far, two records:
row,Structure (SMILES),Potency
10,COc1ccccc1NC(=O)COc1ccccc1C(=O)c1cnn(-c2ccccc2)c1,inactive
3,COc1cccc(/C=N/NC(=O)c2ccc(-c3ccccc3)cc2)c1O,active: 3.16 µM
